No constants are given. Whether binding was seen depends on the method and setting. For some assays here: In cells and extracts the contact can be indirect. Some entries that bind do so weakly or less than the wild type.

Sequences of proteins named here, by UniProt entry; tags and fusion partners are left off. Residues count along the entry.
UniProt P01138, residues 122-241: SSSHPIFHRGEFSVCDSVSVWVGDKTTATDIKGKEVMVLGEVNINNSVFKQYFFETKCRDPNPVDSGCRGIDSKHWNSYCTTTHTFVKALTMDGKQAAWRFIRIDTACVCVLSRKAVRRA
UniProt O14786, residues 22-923: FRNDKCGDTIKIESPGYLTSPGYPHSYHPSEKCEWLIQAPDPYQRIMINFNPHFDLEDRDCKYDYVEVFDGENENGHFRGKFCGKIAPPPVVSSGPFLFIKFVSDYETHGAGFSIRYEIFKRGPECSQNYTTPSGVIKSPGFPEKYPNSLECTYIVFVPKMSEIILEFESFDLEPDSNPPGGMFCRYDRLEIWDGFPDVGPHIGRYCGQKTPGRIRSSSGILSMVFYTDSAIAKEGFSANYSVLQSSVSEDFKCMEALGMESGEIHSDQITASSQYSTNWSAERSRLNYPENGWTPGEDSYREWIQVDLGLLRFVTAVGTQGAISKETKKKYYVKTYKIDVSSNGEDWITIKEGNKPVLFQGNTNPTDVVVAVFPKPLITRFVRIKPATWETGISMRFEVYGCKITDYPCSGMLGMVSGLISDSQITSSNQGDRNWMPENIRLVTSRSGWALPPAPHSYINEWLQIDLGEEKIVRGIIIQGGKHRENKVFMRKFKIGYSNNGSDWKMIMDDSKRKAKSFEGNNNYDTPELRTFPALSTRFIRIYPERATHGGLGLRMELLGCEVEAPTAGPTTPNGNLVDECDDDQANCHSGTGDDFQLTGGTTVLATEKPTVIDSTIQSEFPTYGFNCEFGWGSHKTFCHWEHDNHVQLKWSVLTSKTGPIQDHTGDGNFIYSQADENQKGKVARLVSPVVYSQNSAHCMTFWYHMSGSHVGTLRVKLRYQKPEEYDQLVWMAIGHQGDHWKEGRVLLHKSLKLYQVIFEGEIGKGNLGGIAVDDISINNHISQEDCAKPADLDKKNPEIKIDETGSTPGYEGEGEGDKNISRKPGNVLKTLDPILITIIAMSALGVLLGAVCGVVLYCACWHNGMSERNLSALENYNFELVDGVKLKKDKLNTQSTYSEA
UniProt P08138, residues 29-427: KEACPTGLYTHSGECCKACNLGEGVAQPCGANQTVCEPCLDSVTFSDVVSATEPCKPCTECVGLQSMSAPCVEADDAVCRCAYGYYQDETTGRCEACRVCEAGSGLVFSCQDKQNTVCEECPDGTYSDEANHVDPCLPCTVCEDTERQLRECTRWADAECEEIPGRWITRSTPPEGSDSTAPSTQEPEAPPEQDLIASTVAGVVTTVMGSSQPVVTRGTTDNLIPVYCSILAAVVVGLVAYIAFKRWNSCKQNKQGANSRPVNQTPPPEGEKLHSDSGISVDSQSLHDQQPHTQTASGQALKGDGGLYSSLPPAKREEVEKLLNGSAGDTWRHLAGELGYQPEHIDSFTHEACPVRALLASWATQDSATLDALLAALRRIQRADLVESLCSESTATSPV
UniProt P68802, residues 28-163: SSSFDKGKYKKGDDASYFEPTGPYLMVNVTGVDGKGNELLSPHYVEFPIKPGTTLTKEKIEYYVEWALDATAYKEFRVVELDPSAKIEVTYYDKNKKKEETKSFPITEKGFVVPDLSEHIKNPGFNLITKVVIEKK
UniProt Q16602, residues 23-461: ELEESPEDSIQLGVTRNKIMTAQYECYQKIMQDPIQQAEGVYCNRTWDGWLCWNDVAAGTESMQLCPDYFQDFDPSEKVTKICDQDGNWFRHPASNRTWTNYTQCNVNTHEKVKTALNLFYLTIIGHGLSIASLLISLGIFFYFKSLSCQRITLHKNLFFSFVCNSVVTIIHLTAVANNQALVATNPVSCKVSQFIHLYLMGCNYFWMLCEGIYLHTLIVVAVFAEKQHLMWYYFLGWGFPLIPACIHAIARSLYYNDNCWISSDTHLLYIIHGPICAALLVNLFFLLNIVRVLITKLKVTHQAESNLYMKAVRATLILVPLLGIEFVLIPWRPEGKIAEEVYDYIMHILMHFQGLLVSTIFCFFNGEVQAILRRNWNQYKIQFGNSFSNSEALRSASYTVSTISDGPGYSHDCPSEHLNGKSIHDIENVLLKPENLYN
UniProt P04629, residues 33-796: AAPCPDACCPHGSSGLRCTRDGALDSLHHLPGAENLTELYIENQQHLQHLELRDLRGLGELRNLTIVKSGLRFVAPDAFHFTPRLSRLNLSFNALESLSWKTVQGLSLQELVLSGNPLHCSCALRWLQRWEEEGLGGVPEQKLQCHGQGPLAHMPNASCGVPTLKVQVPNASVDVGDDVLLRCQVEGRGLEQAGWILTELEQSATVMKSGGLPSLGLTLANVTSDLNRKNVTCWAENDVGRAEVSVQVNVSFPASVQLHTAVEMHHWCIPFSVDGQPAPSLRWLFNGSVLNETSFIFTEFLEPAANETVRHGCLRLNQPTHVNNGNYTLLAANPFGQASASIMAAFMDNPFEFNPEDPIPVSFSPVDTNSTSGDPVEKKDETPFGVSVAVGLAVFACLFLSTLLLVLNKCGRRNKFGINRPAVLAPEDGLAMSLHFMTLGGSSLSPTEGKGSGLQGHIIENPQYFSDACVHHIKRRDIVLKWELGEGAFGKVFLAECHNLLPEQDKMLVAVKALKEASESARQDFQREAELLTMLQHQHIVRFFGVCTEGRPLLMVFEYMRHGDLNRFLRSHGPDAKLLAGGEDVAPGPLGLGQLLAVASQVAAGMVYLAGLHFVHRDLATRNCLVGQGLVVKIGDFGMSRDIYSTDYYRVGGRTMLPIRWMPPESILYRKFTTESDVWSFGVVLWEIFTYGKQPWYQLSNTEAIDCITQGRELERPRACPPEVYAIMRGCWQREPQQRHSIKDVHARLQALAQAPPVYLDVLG

Assay [1] concerns the target fluorescent human NGF (human) (UniProt P01138). In words: MST.
For the next assay, the target named is Nanoluc-NRP1 (human) (UniProt O14786). Kind of assay: FRET or BRET. Background: Bioluminescence resonance energy transfer reports proximity on the nanometre scale.
Another assay addresses SnapTag-NRP1 (human) (UniProt O14786). Kind of assay: FRET or BRET.
The target of another assay is Nanoluc-p75NTR (UniProt P08138). Kind of assay: FRET or BRET.

“staphylokinase (from UniProt P68802 28-163)”: the binding entry in assay [1] is on record as “no binding”.

As for “SnapTag-calcitonin-like receptor (CALCRL) (from UniProt Q16602 23-461)”, the binding entry with Nanoluc-NRP1 (human) is “no binding”.

On to “NGF-HiBiT (from UniProt P01138 122-241) (ligand)”, for which the binding result in the assay with SnapTag-NRP1 (human) is “binds”.

For the substance “SnapTag-TrkA (from UniProt P04629 33-796) (receptor)”, the binding result with Nanoluc-p75NTR and with Nanoluc-NRP1 (human) was “binds” throughout.

For the origin of these results see doi:10.1101/2023.12.06.570398.
